Experimental data published in patent US12404299 (dated 2025).

Assay: general procedure: peptide synthesis; CTC resin, Wang resin, or SASRIN resin; DIC or EDCI·HCl, or DIC and Oxyma; HATU/DIPEA for cyclisation
Conditions: whole synthesis

Substance: (5S, 8S, 11S, 15R, 18S, 23aS, 29S, 35S, 37aS)-8,11-di((S)-sec-butyl)-29-(3-chloro-4-(trifluoromethyl)phenethyl)-35-(cyclohexylmethyl)-18-isopropyl-5,6,12,15,16,19,21,21,22,33,36-undecamethyltetracosahydro-2H-azeto[2,1-u]pyrrolo[2,1-i]
- isolated mass: 4.1 mg
- isolated yield (scale of the general procedure usually 0.10 g resin): 9%
